Publication doi:10.1101/2021.10.12.464076
Results are given in words; binding and its absence hold for the method and conditions named. Binding seen in cells or lysates may run through a third protein. Some binding calls cover weakened binding; strength is not graded here. For some of these results: Sequences can lack the tags named with a protein.

By UniProt entry, the sequences of proteins in these tests, tags left out.
UniProt P20585: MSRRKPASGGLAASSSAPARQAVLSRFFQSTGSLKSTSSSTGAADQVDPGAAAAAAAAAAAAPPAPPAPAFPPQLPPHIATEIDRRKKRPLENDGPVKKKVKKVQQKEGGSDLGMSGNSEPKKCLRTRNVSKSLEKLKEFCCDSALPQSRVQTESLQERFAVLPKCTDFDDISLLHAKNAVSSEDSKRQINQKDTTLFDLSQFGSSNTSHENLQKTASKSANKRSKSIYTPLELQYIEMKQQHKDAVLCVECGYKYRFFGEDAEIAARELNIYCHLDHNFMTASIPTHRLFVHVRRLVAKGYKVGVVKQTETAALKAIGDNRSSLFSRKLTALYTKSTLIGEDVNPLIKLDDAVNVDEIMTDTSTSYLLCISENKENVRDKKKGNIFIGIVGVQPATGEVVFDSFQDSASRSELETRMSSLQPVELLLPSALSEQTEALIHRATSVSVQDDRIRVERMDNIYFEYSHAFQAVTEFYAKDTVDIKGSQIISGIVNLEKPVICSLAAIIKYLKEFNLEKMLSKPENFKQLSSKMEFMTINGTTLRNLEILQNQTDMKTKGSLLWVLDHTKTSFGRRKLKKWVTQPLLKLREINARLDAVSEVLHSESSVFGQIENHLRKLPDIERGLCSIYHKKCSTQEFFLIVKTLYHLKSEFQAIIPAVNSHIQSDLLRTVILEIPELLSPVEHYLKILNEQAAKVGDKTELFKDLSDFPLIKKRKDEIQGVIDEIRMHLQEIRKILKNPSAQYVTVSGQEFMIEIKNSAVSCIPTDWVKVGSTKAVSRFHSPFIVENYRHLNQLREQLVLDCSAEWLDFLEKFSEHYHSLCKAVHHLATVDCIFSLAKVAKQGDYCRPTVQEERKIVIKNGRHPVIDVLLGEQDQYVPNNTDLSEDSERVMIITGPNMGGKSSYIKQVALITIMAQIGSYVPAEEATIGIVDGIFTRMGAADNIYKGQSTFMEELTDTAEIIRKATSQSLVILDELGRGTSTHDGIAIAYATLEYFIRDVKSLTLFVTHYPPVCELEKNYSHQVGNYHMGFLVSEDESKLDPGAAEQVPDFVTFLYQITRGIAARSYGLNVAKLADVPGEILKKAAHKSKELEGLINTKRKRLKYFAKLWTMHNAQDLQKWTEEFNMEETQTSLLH
UniProt P52701: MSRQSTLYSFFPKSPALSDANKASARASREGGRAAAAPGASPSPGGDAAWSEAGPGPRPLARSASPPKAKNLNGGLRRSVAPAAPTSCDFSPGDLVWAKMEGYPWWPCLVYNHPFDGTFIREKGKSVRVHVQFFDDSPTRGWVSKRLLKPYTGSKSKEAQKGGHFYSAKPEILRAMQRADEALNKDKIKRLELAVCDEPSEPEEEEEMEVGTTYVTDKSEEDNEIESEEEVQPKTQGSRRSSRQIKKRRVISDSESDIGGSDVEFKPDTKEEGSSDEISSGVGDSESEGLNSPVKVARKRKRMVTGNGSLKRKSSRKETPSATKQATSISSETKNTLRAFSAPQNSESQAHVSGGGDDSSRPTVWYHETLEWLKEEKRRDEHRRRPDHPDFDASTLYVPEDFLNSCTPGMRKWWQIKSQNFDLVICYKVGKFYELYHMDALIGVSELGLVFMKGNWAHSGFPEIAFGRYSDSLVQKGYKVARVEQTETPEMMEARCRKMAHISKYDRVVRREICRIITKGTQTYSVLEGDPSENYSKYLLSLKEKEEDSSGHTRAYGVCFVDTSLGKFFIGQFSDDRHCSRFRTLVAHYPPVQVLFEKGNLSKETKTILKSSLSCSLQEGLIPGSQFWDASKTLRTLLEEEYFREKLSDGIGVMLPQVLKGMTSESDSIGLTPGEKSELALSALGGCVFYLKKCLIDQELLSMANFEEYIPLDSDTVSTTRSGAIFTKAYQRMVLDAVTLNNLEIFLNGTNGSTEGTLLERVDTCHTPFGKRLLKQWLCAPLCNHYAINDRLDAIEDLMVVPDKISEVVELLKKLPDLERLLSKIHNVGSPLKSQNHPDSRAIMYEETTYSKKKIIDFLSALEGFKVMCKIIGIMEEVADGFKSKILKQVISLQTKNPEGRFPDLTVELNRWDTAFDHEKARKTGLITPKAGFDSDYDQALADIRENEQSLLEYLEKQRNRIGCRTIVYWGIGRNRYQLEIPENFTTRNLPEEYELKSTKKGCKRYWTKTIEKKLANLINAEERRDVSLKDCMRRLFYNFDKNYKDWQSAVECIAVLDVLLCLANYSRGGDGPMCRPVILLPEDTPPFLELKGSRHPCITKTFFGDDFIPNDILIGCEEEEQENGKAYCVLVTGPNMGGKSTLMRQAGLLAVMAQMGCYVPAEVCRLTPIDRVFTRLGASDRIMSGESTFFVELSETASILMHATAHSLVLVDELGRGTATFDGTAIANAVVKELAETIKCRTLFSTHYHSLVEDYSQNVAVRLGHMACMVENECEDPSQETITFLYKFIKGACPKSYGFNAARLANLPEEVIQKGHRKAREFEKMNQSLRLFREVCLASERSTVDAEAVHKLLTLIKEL

T1: FLAG-SLX4 340-580aa fragment (human) (UniProt Q8IY92)
T1 sequence: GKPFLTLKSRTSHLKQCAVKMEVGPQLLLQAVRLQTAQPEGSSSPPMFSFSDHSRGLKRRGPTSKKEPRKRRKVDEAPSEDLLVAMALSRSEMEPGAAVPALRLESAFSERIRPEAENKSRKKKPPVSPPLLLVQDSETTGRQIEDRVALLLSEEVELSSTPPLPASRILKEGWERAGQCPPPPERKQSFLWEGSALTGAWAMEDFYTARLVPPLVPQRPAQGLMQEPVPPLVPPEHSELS


Tests used:
Test in all cases: co-IP
[1] = molecular target: FLAG-HA-SLX4 wild type (human) (UniProt Q8IY92)
[2] = molecular target: endogenous SLX4 (human (endogenous in HeLa)) (UniProt Q8IY92)
FHA-SLX4ΔMSH2bd (human) = FHA-SLX4ΔMSH2bd (human) (UniProt Q8IY92)
[3] = molecular target: T1, FLAG-SLX4 340-580aa fragment (human)

| binding [1] | binding [2] | binding (FHA-SLX4ΔMSH2bd (human)) | binding [3] | Molecule |
| --- | --- | --- | --- | --- |
| binds | binds |  |  | endogenous MSH3 (from UniProt P20585 1-1137) |
| binds | binds |  |  | endogenous MSH6 (from UniProt P52701 1-1360) |
| binds |  | binds | binds | endogenous XPF (protein, UniProt Q92889 1-916) MESGQPARRIAMAPLLEYERQLVLELLDTDGLVVCARGLGADRLLYHFLQLHCHPACLVLVLNTQPAEEEYFINQLKIEGVEHLPRRVTNEITSNSRYEVYTQGGVIFATSRILVVDFLTDRIPSDLITGILVYRAHRIIESCQEAFILRLFRQKNKRGFIKAFTDNAVAFDTGFCHVERVMRNLFVRKLYLWPRFHVAVNSFLEQHKPEVVEIHVSMTPTMLAIQTAILDILNACLKELKCHNPSLEVEDLSLENAIGKPFDKTIRHYLDPLWHQLGAKTKSLVQDLKILRTLLQYLSQYDCVTFLNLLESLRATEKAFGQNSGWLFLDSSTSMFINARARVYHLPDAKMSKKEKISEKMEIKEGEETKKELVLESNPKWEALTEVLKEIEAENKESEALGGPGQVLICASDDRTCSQLRDYITLGAEAFLLRLYRKTFEKDSKAEEVWMKFRKEDSSKRIRKSHKRPKDPQNKERASTKERTLKKKKRKLTLTQMVGKPEELEEEGDVEEGYRREISSSPESCPEEIKHEEFDVNLSSDAAFGILKEPLTIIHPLLGCSDPYALTRVLHEVEPRYVVLYDAELTFVRQLEIYRASRPGKPLRVYFLIYGGSTEEQRYLTALRKEKEAFEKLIREKASMVVPEEREGRDETNLDLVRGTASADVSTDTRKAGGQEQNGTQQSIVVDMREFRSELPSLIHRRGIDIEPVTLEVGDYILTPEMCVERKSISDLIGSLNNGRLYSQCISMSRYYKRPVLLIEFDPSKPFSLTSRGALFQEISSNDISSKLTLLTLHFPRLRILWCPSPHATAELFEELKQSKPQPDAATALAITADSETLPESEKYNPGPQDFLLKMPGVNAKNCRSLMHHVKNIAELAALSQDELTSILGNAANAKQLYDFIHTSFAEVVSKGKGKK |
